PubChem BioAssay AID504444 (National Center for Advancing Translational Sciences (NCATS), 2011)
Hit rate of the full screen: of about 360,000 compounds, about 7,500 (2.1%) were called active. Inconclusive results, whose numbers are uncertain, are shown with a selection of clear calls. The call rests on the fitted dose curve; in most records, active means well fitted inhibition curve with a large enough effect; inconclusive means small, poorly fitted or top-dose-only effect, or effect the other way; inactive means flat fitted curve, though single readings scatter. Potencies of inconclusive entries are doubtful fits and often do not repeat.

assay: Nrf2 qHTS screen for inhibitors; conditions: A549 ARE-Fluc reporter, luciferase luminescence, 18-24 h; activity change, negative = inhibition: at 46 µM (top of the series); further: nearly all actives have a fitted effect of over 60% in size
In short: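 A549 ARE_Fluc cells (5000/well, 5% FBS OPTI-MEM) pre-incubated 2 h, then treated with compounds 18-24 h at 37C/5% CO2 in concentration-response. CellTiter-Fluor viability read first; BugLite luciferase luminescence after 15 min at room temperature gives Nrf2 activity.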
On the % scale 0 is the no-effect control and ±100 the full control effect; potency means the concentration at half of the fitted maximal effect.

| SMILES | Potency | activity change, negative = inhibition |
| --- | --- | --- |
| CCOC(=O)N1N=C(c2ccc(C)cc2)CC1(O)C(F)(F)F (stereo unspecified) | inconclusive: 0.164 µM [activator, full curve, poor fit] | – |
| NC(=O)c1c(NC(=O)CSc2nnc(-c3ccco3)n2N)sc2c1CCCC2 | inconclusive: 0.13 µM [activator, full curve, poor fit] | – |
| COc1ccc(C2c3ccccc3Oc3ncn(CCN4CCOCC4)c(=N)c32)cc1OC (stereo unspecified) | inconclusive: 3.66 µM [activator, partial curve, poor fit] | – |
| CCC(C)NC(=O)c1ccc(COc2ccccc2Cl)cc1 (stereo unspecified) | inconclusive: 2.59 µM [falling, partial curve, poor fit] | – |
| N#C/C(=C\c1ccc(N2CCOCC2)c([N+](=O)[O-])c1)c1nc2ccccc2[nH]1 | inconclusive: 32.6 µM [falling, single point] | – |
| Cc1cccc(Cn2c(SCC(=O)Nc3ccccc3)nc3c2c(=O)[nH]c(=O)n3C)c1 | inconclusive: 29.1 µM [falling, single point] | – |
| COc1cccc(-c2noc(C3CCCN(C(=O)c4ccc(F)cc4F)C3)n2)c1 (stereo unspecified) | inconclusive: 32.6 µM [falling, single point] | – |
| COCCNC(=O)c1ccccc1NC(=O)C1COc2ccccc2O1 (stereo unspecified) | inconclusive: 23.1 µM [falling, single point] | – |
| O=C(O)CCc1ccc(-c2ccccc2)n1-c1cccc(C(=O)O)c1 | – | inactive: 34.8% |
| O=C(N/N=C/c1ccncc1)c1cc(Br)ccc1OCc1ccccc1 | inconclusive: 29.1 µM [falling, single point] | – |
| Cc1ccc([C@H]2C(C(=O)O)=CC[C@@H](c3ccc(Cl)cc3)N2S(=O)(=O)c2ccccc2C)cc1 | – | inactive: -22.9% |
| Cc1ccc(NC(=O)c2cccc3ccccc23)cc1 | inconclusive: 11.6 µM [activator, partial curve] | – |
| CCN(CC)C(=O)[C@H]1C[C@H](CC(=O)NCc2ccco2)C(=O)N2CCc3c([nH]c4cc(CCC(=O)N(C)C)ccc34)[C@]12C | inconclusive: 6.51 µM [falling, partial curve, poor fit] | – |
| CC1CCCC(C)N1CCCNC(=O)c1nn(C)c2c1CSc1ccccc1-2 (stereo unspecified) | inconclusive: 2.91 µM [activator, partial curve, poor fit] | – |
| C/C(=N/NC(=O)c1cnccn1)c1ccncc1 | inconclusive: 16.4 µM [activator, single point] | – |
| CC(NC(=O)CNC(=O)c1ccco1)c1ccccc1 (stereo unspecified) | – | inactive: -9.2% |
| CCOc1ccc(C(=O)CCC(=O)Nc2cccc(S(=O)(=O)N3CCCCC3)c2)cc1 | inconclusive: 29.1 µM [falling, single point] | – |
| CC(C)(C)n1nnnc1C(c1cccs1)N(Cc1ccc(Cl)cc1)CC1CCCO1 (stereo unspecified) | inconclusive: 14.6 µM [falling, partial curve, poor fit] | – |
| O=C(Cc1ccc(Cl)cc1)Nc1cc(Cl)ccn1 | inconclusive: 20.6 µM [activator, partial curve] | – |
| CC(C)Cc1nc2n[nH]c(N)c2c2c1CCCC2 | inconclusive: 5.17 µM [activator, single point] | – |
| N#Cc1nc(-c2ccccc2F)oc1N1CCN(C(=O)c2ccco2)CC1 | – | inactive: -33% |
| Cc1ccc(Nc2nc(CSc3nnnn3-c3ccccc3)cs2)cc1 | inconclusive: 29.1 µM [falling, single point] | – |

| SMILES | Potency | activity change, negative = inhibition |
| --- | --- | --- |
| Cc1ccc(-c2nnc(Nc3ccc(O)cc3)c3ccccc23)cc1S(=O)(=O)NC(C)(C)CO | – | inactive: -21% |
| Cc1ccc(NC(=O)C(=O)NCC2CCCN2S(=O)(=O)c2cccs2)cc1C (stereo unspecified) | inconclusive: 29.1 µM [falling, single point] | – |
| COc1oc(C(=O)NC2CCCCC2)c(-c2ccc(Cl)cc2)c1S(=O)(=O)c1ccccc1 | – | inactive: -4.81% |
| Cc1nn2c(C)c(C(=O)NCc3cccc(Br)c3)cnc2c1-c1ccccc1 | inconclusive: 3.66 µM [falling, partial curve, poor fit] | – |
| O=C(NCCc1ccccc1)C1CCN(Cc2cccc3ccccc23)CC1 | – | inactive: 5.92% |
| CC(=O)NC(Cc1ccccc1F)C(=O)NC1CCN(C(=O)Nc2ccc(C)cc2)CC1 (stereo unspecified) | – | inactive: 8.47% |
| O=C(Nc1ccc(NC(=O)c2cccs2)cn1)c1ccco1 | inconclusive: 0.58 µM [activator, full curve] | – |
| CN(C)c1ccc(C=NCCC2(O)CCOC(C)(C)C2)cc1 (stereo unspecified) | inconclusive: 0.0073 µM [falling, full curve, poor fit] | – |
| C=CCSc1nnc(NC(=O)C2=COCCO2)s1 | inconclusive: 7.31 µM [activator, partial curve] | – |
| COc1ccc(Nc2cc(C)c3cc(NC(=O)COc4cccc(C)c4)ccc3n2)cc1 | inconclusive: 29.1 µM [falling, single point] | – |
| COc1ccc(NC(=O)C2CCCCN2S(=O)(=O)c2ccc(F)cc2)cc1 (stereo unspecified) | inconclusive: 13 µM [falling, partial curve, poor fit] | – |
| COc1ccc2nc(NC(=O)c3nc(S(=O)(=O)Cc4ccc(C)cc4)ncc3Cl)sc2c1 | inconclusive: 29.1 µM [falling, single point] | – |
| C/C(=N\OC(=O)NC1CCCCC1)c1sc(-c2ccccc2)nc1C | inconclusive: 20.6 µM [falling, single point] | – |
| COc1ccc(/C=C(/C(=O)NCc2ccccc2)c2ccccc2)cc1 | inconclusive: 29.1 µM [falling, single point] | – |
| O=C(O)c1ccc(N/N=C/c2ccc(C(F)(F)F)cc2)cc1 | inconclusive: 0.82 µM [activator, full curve, poor fit] | – |
| CC1CN(C(=O)COC(=O)c2ccc(Cl)c(S(=O)(=O)N3CCCCC3)c2)CC(C)O1 (stereo unspecified) | inconclusive: 0.184 µM [activator, full curve, poor fit] | – |
| Cc1ccc(NC(=O)c2cc(NC(=O)c3ccco3)ccc2N2CCOCC2)cc1 | inconclusive: 32.6 µM [falling, single point] | – |
| C=CCNC(=S)N/N=C(\C)c1cccc(NC(C)=O)c1 | – | inactive: -40.5% |
| CC(C)CC1NC(=O)N(CC(=O)NC2CCCc3ccccc32)C1=O (stereo unspecified) | inconclusive: 32.6 µM [activator, partial curve, poor fit] | – |
| CC(NC(=O)Nc1nnc(C(F)(F)F)s1)(C(F)(F)F)C(F)(F)F | active: 5.17 µM | – |
| O=C(Nc1ccc2ccccc2c1)c1ccc2[nH]c(=O)c(=O)[nH]c2c1 | inconclusive: 1.64 µM [activator, full curve, poor fit] | – |
| COc1cc(-c2nc(-c3ccccc3)c(-c3ccc(Br)cc3)[nH]2)cc(OC)c1O | – | inactive: -17% |

Four neighbouring compounds out of the list so far, for reference:

| SMILES | Potency | activity change, negative = inhibition |
| --- | --- | --- |
| CCOc1ccc(C(=O)CCC(=O)Nc2cccc(S(=O)(=O)N3CCCCC3)c2)cc1 | inconclusive: 29.1 µM [falling, single point] | – |
| CC(C)(C)n1nnnc1C(c1cccs1)N(Cc1ccc(Cl)cc1)CC1CCCO1 (stereo unspecified) | inconclusive: 14.6 µM [falling, partial curve, poor fit] | – |
| O=C(Cc1ccc(Cl)cc1)Nc1cc(Cl)ccn1 | inconclusive: 20.6 µM [activator, partial curve] | – |
| CC(C)Cc1nc2n[nH]c(N)c2c2c1CCCC2 | inconclusive: 5.17 µM [activator, single point] | – |

Next compounds

| SMILES | Potency | activity change, negative = inhibition |
| --- | --- | --- |
| O=c1c2c3c(sc2nc(NCCO)n1Cc1ccco1)CCCCC3 | inconclusive: 9.2 µM [activator, partial curve, poor fit] | – |
| Cc1ccc(S(=O)(=O)N(CC(=O)N2CCOCC2)C2CCCCC2)cc1 | inconclusive: 1.46 µM [falling, partial curve, poor fit] | – |
| CC1CCc2c(sc3ncnc(SCC(=O)N(C)C4CCS(=O)(=O)C4)c23)C1 (stereo unspecified) | active: 16.4 µM | – |
| CCC(=O)Nc1cccc(NC(=S)NC(=O)c2ccccc2)c1 | inconclusive: 20.6 µM [activator, partial curve] | – |
| Cc1ccc(NC(=S)NC(=O)c2ccc(F)cc2)cc1S(=O)(=O)Nc1cccc(Cl)c1 | inconclusive: 29.1 µM [falling, single point] | – |
| CCCCCn1c(CN(C)Cc2ccccc2)nc2c1c(=O)n(C)c(=O)n2C | active: 18.4 µM | – |
| CCc1c(C2(O)CCCCC2)[nH]c2cc(C(F)(F)F)ccc12 | inconclusive: 29.1 µM [falling, single point] | – |
| COc1ccc(Nc2oc(/C=C/c3cc(OC)c(OC)c(OC)c3)nc2C#N)cc1 | – | inactive: 1.99% |
| CC(C)CC(=O)N1CCN(S(=O)(=O)c2ccc(C3CCCCC3)cc2)CC1 | active: 8.2 µM | – |
| CCCCC1=CC2=CC(=O)C(C)(OC(=O)C3CCCC3)C(=O)C2=CO1 (stereo unspecified) | – | inactive: 9.91% |
| COc1ccc(C=C(c2ccc(OC)cc2)c2ccc(OC)cc2)cc1 | – | inactive: -4.49% |
| Cc1ccc(NC(=O)N2CCc3ccccc3C2)cc1 | inconclusive: 2.31 µM [activator, full curve] | – |
| NNC(=O)c1cccc(COc2ccccc2Br)c1 | inconclusive: 1.3 µM [activator, full curve] | – |
| COc1cc(C=C(c2nc3ccccc3s2)c2nc3ccccc3s2)cc(OC)c1O | inconclusive: 8.2 µM [activator, partial curve] | – |
| Cc1onc(C(=O)NC2CCCCC2)c1[N+](=O)[O-] | – | inactive: 4.17% |
| Fc1cccc(F)c1/C=C/c1ccc2ccccc2n1 | inconclusive: 1.3 µM [activator, partial curve, poor fit] | – |
| C[n+]1cc(C(O)(c2ccccc2)c2ccccc2)n2ccccc21 | inconclusive: 3.66 µM [falling, partial curve, poor fit] | – |
| COc1cccc(C2c3[nH]c4ccccc4c3C[C@H]3C(=O)N(C)CC(=O)N23)c1 (stereo partly specified) | inconclusive: 4.11 µM [falling, partial curve, poor fit] | – |
| CC(=O)N1CCc2c(sc3c2c(=O)n(Cc2ccccc2)c(=O)n3Cc2ccccc2Cl)C1 | active: 18.4 µM | – |
| CSc1nc(NC(C)(C)C)nc(Oc2ccc(=O)[nH]n2)n1 | inconclusive: 29.1 µM [activator, single point] | – |
| Cc1ccc(C(=O)O/N=C(\N)c2ccccn2)c(Cl)c1 | inconclusive: 13 µM [falling, single point] | – |
| O=C(NC1C=CS(=O)(=O)C1)c1sc2ccccc2c1Cl (stereo unspecified) | inconclusive: 25.9 µM [activator, single point] | – |
